# The other results are listed elsewhere or left out.
# B1: EULS2 M3 (Oryza sativa) (protein)
# chain: MVYCRANPNYAMTARNGAVVLAPANPKDEYQHWIKDMRWSTSIKDEEGYPAFALVNKATGQAIKHSLGQSHPVRLVPYNPEVMDESVLWTESRDVGNGFRCIRMVNNIYLNFDAFHGDKYHGGVRDGTDIVLWKLCEGDSLRWKIQPYYILEQKLISEEDLNSAVDHHHHHH
# Columns and labels:
# Experiment in all cases: glycan array binding signal (z-score within array); higher = stronger binding
# Conditions in all cases: glycan notation: IUPAC condensed, linker removed
# [1] = target: Fuc(a1-2)Gal6S(b1-3)GlcNAc6S
# In short: (§1)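 Glycan array data were curated from 3228 arrays in the Consortium for Functional Glycomics database and kept only where the protein sequence was available. Glycan names were converted to IUPAC-condensed notation, and columns mapping to the same glycan were averaged. The binding signal is a within-array Z-score, averaged across arrays of the same protein sequence at different concentrations or buffers and across linkers. Negative Z-scores can be read as non-binding.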
# [2] = target: Fuc(a1-2)Gal6S(b1-4)Glc
# In short: as §1
# [3] = target: Fuc(a1-2)Gal6S(b1-4)Glc6S
# In short: as §1
# [4] = target: Fuc(a1-2)[Gal(a1-3)]Gal
# In short: as §1
# [5] = target: Fuc(a1-2)[Gal(a1-3)]Gal(b1-3)GalNAc
# In short: as §1
# [6] = target: Fuc(a1-2)[Gal(a1-3)]Gal(b1-3)GalNAc(b1-3)Gal(a1-4)Gal(b1-4)Glc
# In short: as §1
# [7] = target: Fuc(a1-2)[Gal(a1-3)]Gal(b1-3)GlcNAc
# In short: as §1
# [8] = target: Fuc(a1-2)[Gal(a1-3)]Gal(b1-3)GlcNAc(b1-2)Man(a1-3)[Fuc(a1-2)[Gal(a1-3)]Gal(b1-3)GlcNAc(b1-2)Man(a1-6)]Man(b1-4)GlcNAc(b1-4)GlcNAc
# In short: as §1
# [9] = target: Fuc(a1-2)[Gal(a1-3)]Gal(b1-3)GlcNAc(b1-2)Man(a1-3)[Fuc(a1-2)[Gal(a1-3)]Gal(b1-3)GlcNAc(b1-2)Man(a1-6)]Man(b1-4)GlcNAc(b1-4)[Fuc(a1-6)]GlcNAc
# In short: as §1
# [10] = target: Fuc(a1-2)[Gal(a1-3)]Gal(b1-3)GlcNAc(b1-3)GalNAc
# In short: as §1
# [11] = target: Fuc(a1-2)[Gal(a1-3)]Gal(b1-3)GlcNAc(b1-6)GalNAc
# In short: as §1
# [12] = target: Fuc(a1-2)[Gal(a1-3)]Gal(b1-4)Glc
# In short: as §1
# [13] = target: Fuc(a1-2)[Gal(a1-3)]Gal(b1-4)GlcNAc
# In short: as §1
# [14] = target: Fuc(a1-2)[Gal(a1-3)]Gal(b1-4)GlcNAc(b1-2)Man
# In short: as §1
# [15] = target: Fuc(a1-2)[Gal(a1-3)]Gal(b1-4)GlcNAc(b1-2)Man(a1-3)[Fuc(a1-2)[Gal(a1-3)]Gal(b1-4)GlcNAc(b1-2)Man(a1-6)]Man(b1-4)GlcNAc(b1-4)GlcNAc
# In short: as §1
# [16] = target: Fuc(a1-2)[Gal(a1-3)]Gal(b1-4)GlcNAc(b1-2)Man(a1-3)[Fuc(a1-2)[Gal(a1-3)]Gal(b1-4)GlcNAc(b1-2)Man(a1-6)]Man(b1-4)GlcNAc(b1-4)[Fuc(a1-6)]GlcNAc
# In short: as §1
# [17] = target: Fuc(a1-2)[Gal(a1-3)]Gal(b1-4)GlcNAc(b1-3)GalNAc
# In short: as §1
# [18] = target: Fuc(a1-2)[Gal(a1-3)]Gal(b1-4)GlcNAc(b1-3)[Fuc(a1-2)[Gal(a1-3)]Gal(b1-4)GlcNAc(b1-6)]GalNAc
# In short: as §1
# [19] = target: Fuc(a1-2)[Gal(a1-3)]Gal(b1-4)GlcNAc(b1-6)GalNAc
# In short: as §1
# [20] = target: Fuc(a1-2)[Gal(a1-3)]Gal(b1-4)[Fuc(a1-3)]Glc
# In short: as §1
# [21] = target: Fuc(a1-2)[Gal(a1-3)]Gal(b1-4)[Fuc(a1-3)]GlcNAc
# In short: as §1
# [22] = target: Fuc(a1-2)[Gal(a1-3)]Gal(b1-4)[Fuc(a1-3)]GlcNAc(b1-3)GalNAc
# In short: as §1
# [23] = target: Fuc(a1-2)[Gal(a1-4)]Gal(b1-4)GlcNAc
# In short: as §1
# [24] = target: Fuc(a1-2)[GalNAc(a1-3)]Gal
# In short: as §1
# [25] = target: Fuc(a1-2)[GalNAc(a1-3)]Gal(b1-3)GalNAc(a1-3)[Fuc(a1-2)]Gal(b1-4)GlcNAc
# In short: as §1
# [26] = target: Fuc(a1-2)[GalNAc(a1-3)]Gal(b1-3)GalNAc(b1-3)Gal(a1-4)Gal(b1-4)Glc
# In short: as §1
# [27] = target: Fuc(a1-2)[GalNAc(a1-3)]Gal(b1-3)GlcNAc
# In short: as §1
# [28] = target: Fuc(a1-2)[GalNAc(a1-3)]Gal(b1-3)GlcNAc(b1-2)Man(a1-3)[Fuc(a1-2)[GalNAc(a1-3)]Gal(b1-3)GlcNAc(b1-2)Man(a1-6)]Man(b1-4)GlcNAc(b1-4)GlcNAc
# In short: as §1
# [29] = target: Fuc(a1-2)[GalNAc(a1-3)]Gal(b1-3)GlcNAc(b1-2)Man(a1-3)[Fuc(a1-2)[GalNAc(a1-3)]Gal(b1-3)GlcNAc(b1-2)Man(a1-6)]Man(b1-4)GlcNAc(b1-4)[Fuc(a1-6)]GlcNAc
# In short: as §1
# [30] = target: Fuc(a1-2)[GalNAc(a1-3)]Gal(b1-3)GlcNAc(b1-3)GalNAc
# In short: as §1
# [31] = target: Fuc(a1-2)[GalNAc(a1-3)]Gal(b1-3)GlcNAc(b1-6)GalNAc
# In short: as §1
# [32] = target: Fuc(a1-2)[GalNAc(a1-3)]Gal(b1-4)Glc
# In short: as §1
# [33] = target: Fuc(a1-2)[GalNAc(a1-3)]Gal(b1-4)GlcNAc
# In short: as §1
# [34] = target: Fuc(a1-2)[GalNAc(a1-3)]Gal(b1-4)GlcNAc(b1-2)Man
# In short: as §1
# [35] = target: Fuc(a1-2)[GalNAc(a1-3)]Gal(b1-4)GlcNAc(b1-2)Man(a1-3)[Fuc(a1-2)[GalNAc(a1-3)]Gal(b1-4)GlcNAc(b1-2)Man(a1-6)]Man(b1-4)GlcNAc(b1-4)GlcNAc
# In short: as §1
# [36] = target: Fuc(a1-2)[GalNAc(a1-3)]Gal(b1-4)GlcNAc(b1-2)Man(a1-3)[Fuc(a1-2)[GalNAc(a1-3)]Gal(b1-4)GlcNAc(b1-2)Man(a1-6)]Man(b1-4)GlcNAc(b1-4)[Fuc(a1-6)]GlcNAc
# In short: as §1
# [37] = target: Fuc(a1-2)[GalNAc(a1-3)]Gal(b1-4)GlcNAc(b1-3)Gal(b1-4)GlcNAc
# In short: as §1
# [38] = target: Fuc(a1-2)[GalNAc(a1-3)]Gal(b1-4)GlcNAc(b1-3)Gal(b1-4)GlcNAc(b1-3)Gal(b1-4)GlcNAc
# In short: as §1
# [39] = target: Fuc(a1-2)[GalNAc(a1-3)]Gal(b1-4)GlcNAc(b1-3)GalNAc
# In short: as §1
# [40] = target: Fuc(a1-2)[GalNAc(a1-3)]Gal(b1-4)GlcNAc(b1-3)[Fuc(a1-2)[GalNAc(a1-3)]Gal(b1-4)GlcNAc(b1-6)]GalNAc
# In short: as §1
# [41] = target: Fuc(a1-2)[GalNAc(a1-3)]Gal(b1-4)GlcNAc(b1-6)GalNAc
# In short: as §1
# [42] = target: Fuc(a1-2)[GalNAc(a1-3)]Gal(b1-4)[Fuc(a1-3)]GlcNAc
# In short: as §1
# [43] = target: Fuc(a1-2)[GalNAc(a1-3)]Gal(b1-4)[Fuc(a1-3)]GlcNAc(b1-3)GalNAc
# In short: as §1
# [44] = target: Fuc(a1-2)[GalNAc(a1-4)]Gal(b1-4)GlcNAc
# In short: as §1
# [45] = target: Fuc(a1-2)[GalNAc(b1-3)]Gal
# In short: as §1
binder,measurement,setting,value
B1,glycan array binding signal (z-score),[1],0.045
same,glycan array binding signal (z-score),[2],-0.48
same,glycan array binding signal (z-score),[3],-0.13
same,glycan array binding signal (z-score),[4],-0.564
same,glycan array binding signal (z-score),[5],0.04
same,glycan array binding signal (z-score),[6],-0.648
same,glycan array binding signal (z-score),[7],1.44
same,glycan array binding signal (z-score),[8],-0.156
same,glycan array binding signal (z-score),[9],-0.085
same,glycan array binding signal (z-score),[10],-0.065
same,glycan array binding signal (z-score),[11],-0.12
same,glycan array binding signal (z-score),[12],-0.301
same,glycan array binding signal (z-score),[13],-0.139
same,glycan array binding signal (z-score),[14],0.032
same,glycan array binding signal (z-score),[15],1.35
same,glycan array binding signal (z-score),[16],0.379
same,glycan array binding signal (z-score),[17],-0.052
same,glycan array binding signal (z-score),[18],-0.405
same,glycan array binding signal (z-score),[19],0.239
same,glycan array binding signal (z-score),[20],-0.023
same,glycan array binding signal (z-score),[21],-0.583
same,glycan array binding signal (z-score),[22],-0.588
same,glycan array binding signal (z-score),[23],-0.433
same,glycan array binding signal (z-score),[24],-0.208
same,glycan array binding signal (z-score),[25],-0.015
same,glycan array binding signal (z-score),[26],-0.13
same,glycan array binding signal (z-score),[27],-0.258
same,glycan array binding signal (z-score),[28],-0.917
same,glycan array binding signal (z-score),[29],0.23
same,glycan array binding signal (z-score),[30],-0.473
same,glycan array binding signal (z-score),[31],0.365
same,glycan array binding signal (z-score),[32],-0.973
same,glycan array binding signal (z-score),[33],1.11
same,glycan array binding signal (z-score),[34],-0.219
same,glycan array binding signal (z-score),[35],0.667
same,glycan array binding signal (z-score),[36],0.517
same,glycan array binding signal (z-score),[37],0.052
same,glycan array binding signal (z-score),[38],-0.022
same,glycan array binding signal (z-score),[39],-0.541
same,glycan array binding signal (z-score),[40],1.36
same,glycan array binding signal (z-score),[41],-0.777
same,glycan array binding signal (z-score),[42],-0.388
same,glycan array binding signal (z-score),[43],-0.133
same,glycan array binding signal (z-score),[44],-0.103
same,glycan array binding signal (z-score),[45],-0.109

# For convenience, some entries already given.
binder,measurement,setting,value
B1,glycan array binding signal (z-score),[12],-0.301
same,glycan array binding signal (z-score),[13],-0.139

# Source: the supplement of paper PMC8728848
